No constants are given. Whether binding was seen depends on the method and setting. Some entries that bind do so weakly or less than the wild type.
B1: single VH domain antibody 3.1 (VHH, not shown: small tags and cut ends)
VHH: EVQLVESGGGVVQPGRSLRLSCAASGFPLISYGMHWVRQAPGKGLEWVAFMTYDGSNRYYADSVKGRFTISRDNSKNTLYLQMNSLRDEDTALYYCARDRIVGGRVPDAFDIWGQGTMVTVSS
B2: single VH domain antibody 2.10 (VHH)
VHH: EVQLVESGGGVVQPGRSLRLSCAASGFTFSGYGMHWVRQAPGKGLEWVAYISYDGSNRYYADSVKGRFTISRDNSKKTLSLQMNSLRAEDTAVYYCAKDPAWGLRLGESSSYDFDIWGQGTMVTVSS
B3: single VH domain antibody 12.1 (VHH, not shown: small tags and cut ends)
VHH: QVQLVESGGGVVQPGRSLRLSCAASGFTFSNFGMHWARQAPGKGLEWVAVISYDGNSKYYADTVKGRFTISRDNSKNTLYLEMNSLRADDTAVYYCAKGLWPPMDVRGQGTTVTVSS
B4: single VH domain antibody 10.1 (VHH, not shown: small tags and cut ends)
VHH: QVQLVESGGGLVQPGGSLRLSCAASGFTFSSYGMHWVRQAPGKGLEWVAFMSYDGSNKYYVDSVKGRFTISRDNSKNTLYLQMNSLRAEDTAVYYCAKGDYDFWSGYPDYDMDVWGQGTTVTVSS
B5: single VH domain antibody 11.1 (VHH, not shown: small tags and cut ends)
VHH: EVQLVESGGGLVKPGGSLRLSCAASGFNLISYGMYWVRQAPGKGLEWVAVISYDGSNKNYADSVKGRFTISRDNSKNTLFLQMNSLRVEDTAVYYCAKGGNALYSSGWPDDGFDIRGQGTMVTVSS
B6: single VH domain antibody 15.1 (VHH, not shown: small tags and cut ends)
VHH: EVQLVESGGGVVRPGGSLRLSCAASGFTFDDYGMSWVRQAPGKGLEWVSGINWNGDRTGYADSVKGRFTISRDNAKNSLYLQMNSLRAEDTALYYCGRENVIVPAATYWGQGTLVTVSS
B7: single VH domain antibody 9.1 (VHH, not shown: small tags and cut ends)
VHH: QVQLQQWGAGLLKPSETLSLTCAVYGGSFSGHYWSWIRQPPGKGLEWIGDINHSGSTNYNPSLKSRVTISVDTSKNQFSLKLSSVTAADTAVYYCVRDYGDSRSLFDYWGQGTLVTVSS
B8: single VH domain antibody 8.1 (VHH, not shown: small tags and cut ends)
VHH: QVQLQQWGAGLLKPSETLSLTCAVYGGSFSGYYWSWIRQPPGKGLEWIGEINHSGSTNYNPSLKSRVTISVDTSKNQFSLKLSSVTAADTAVYYCARGPIPATAIPDAFDIWGQGTMVTVSS

Tests used:
[1] = molecular target: cynomolgus PSMA, full-length, expressed on CHO cells (cynomolgus); assay: FMAT Mirrorball direct cell binding, purified His-tagged VH titrated on CHO cells expressing cynomolgus PSMA, anti-His + anti-mouse Alexa Fluor-488; panel cynoPSMA-CHO binding
[2] = molecular target: cynomolgus PSMA, full-length, expressed on CHO cells (cynomolgus); assay: FMAT periprep screen, Cyno PSMA CHO

Row | Binder | binding [1] | binding [2]
1 | B1 | binds | 
2 | B2 | binds | 
3 | B3 |  | binds
4 | B4 |  | binds
5 | B5 |  | binds
6 | B6 |  | binds
7 | B7 |  | binds
8 | B8 |  | binds

From US20190023807A1
